Measurements reported in PubChem BioAssay AID602196 (INSERM, 2012)
This is a random part of about 23,000 reagents tested. In the full data, 455 (2%) are marked active. 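Active includes both protection and sensitisation; some change values fall well beyond the stated -50 to +50 range.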 Entries without a mark were called inactive. Further read-outs or replicates are left out here. No sequences are given here. The record does not give: the amount of reagent.

Assay: 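Knock-downs that protect lung cancer cells from cisplatin or sensitise them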
Cell system: human A549 lung cancer cells
Reagent: siRNA pair against human genes
Duration: 48 h transfection before cisplatin; time from cisplatin to read-out not stated
Conditions: cisplatin at a dose killing half of control-siRNA cells; exact dose and duration not given
Measurement: 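Cisplatin cell death as a shift from the 50% death seen with control siRNA; siRNAs toxic or growth-blocking alone scored 0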
Scale: two-siRNA summed score (-2 to +2): higher = both siRNAs protect from cisplatin killing; -2 means both sensitise; mean protection from cisplatin (shift in death): higher = protection from cisplatin killing
Call rule: 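Each siRNA scores 0 if harmful alone by LDH or WST-1, otherwise +1 if it reduces and -1 if it increases cisplatin killing; a gene is active when both siRNAs agree (sum +2 or -2)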
Calls: active = both siRNAs shift cisplatin killing the same way; inactive = no consistent shift, or siRNA harmful alone

TMEM242 → two-siRNA summed score (-2 to +2) = 0; mean protection from cisplatin (shift in death) (%) = 11.1
SPOCD1 → two-siRNA summed score (-2 to +2) = 0; mean protection from cisplatin (shift in death) (%) = 6.1
POLR2DP1 → two-siRNA summed score (-2 to +2) = 1; mean protection from cisplatin (shift in death) (%) = 25.4
LOC347376 → two-siRNA summed score (-2 to +2) = 0; mean protection from cisplatin (shift in death) (%) = -2.7
NUTF2 → two-siRNA summed score (-2 to +2) = -1; mean protection from cisplatin (shift in death) (%) = -7.2
SMIM1 → two-siRNA summed score (-2 to +2) = 0; mean protection from cisplatin (shift in death) (%) = 9
CLDN15 → two-siRNA summed score (-2 to +2) = 1; mean protection from cisplatin (shift in death) (%) = 15.5
FDXR → two-siRNA summed score (-2 to +2) = 0; mean protection from cisplatin (shift in death) (%) = 11.3
TSC2 → two-siRNA summed score (-2 to +2) = 0; mean protection from cisplatin (shift in death) (%) = -1.3
MED7 → two-siRNA summed score (-2 to +2) = 0; mean protection from cisplatin (shift in death) (%) = 5.4
LYST → two-siRNA summed score (-2 to +2) = -1; mean protection from cisplatin (shift in death) (%) = -0.6
CENPU → two-siRNA summed score (-2 to +2) = 0; mean protection from cisplatin (shift in death) (%) = 5.6
ACSM1 → two-siRNA summed score (-2 to +2) = 0; mean protection from cisplatin (shift in death) (%) = -1.1
SERPINH1 → two-siRNA summed score (-2 to +2) = 0; mean protection from cisplatin (shift in death) (%) = 6.4
UVSSA → two-siRNA summed score (-2 to +2) = 0; mean protection from cisplatin (shift in death) (%) = -8.3
R-SE10 → two-siRNA summed score (-2 to +2) = 0; mean protection from cisplatin (shift in death) (%) = 5.8

The list goes on; the last 3 above are carried over.
SERPINH1 → two-siRNA summed score (-2 to +2) = 0; mean protection from cisplatin (shift in death) (%) = 6.4
UVSSA → two-siRNA summed score (-2 to +2) = 0; mean protection from cisplatin (shift in death) (%) = -8.3
R-SE10 → two-siRNA summed score (-2 to +2) = 0; mean protection from cisplatin (shift in death) (%) = 5.8
POLR3GL → two-siRNA summed score (-2 to +2) = 1; mean protection from cisplatin (shift in death) (%) = 13.3
AK1 → two-siRNA summed score (-2 to +2) = 1; mean protection from cisplatin (shift in death) (%) = 8.6
RCAN1 → two-siRNA summed score (-2 to +2) = 1; mean protection from cisplatin (shift in death) (%) = 3.8
CCSER2 → two-siRNA summed score (-2 to +2) = 0; mean protection from cisplatin (shift in death) (%) = 7
KRT4 → two-siRNA summed score (-2 to +2) = 1; mean protection from cisplatin (shift in death) (%) = 15.2
FKBP14 → two-siRNA summed score (-2 to +2) = -1; mean protection from cisplatin (shift in death) (%) = -19.6
RHOT2 → two-siRNA summed score (-2 to +2) = 1; mean protection from cisplatin (shift in death) (%) = 9.4
LOC91316 → two-siRNA summed score (-2 to +2) = 1; mean protection from cisplatin (shift in death) (%) = 20.2
P2RX5 → two-siRNA summed score (-2 to +2) = 1; mean protection from cisplatin (shift in death) (%) = 14.1
ANO1 → two-siRNA summed score (-2 to +2) = 0; mean protection from cisplatin (shift in death) (%) = 0
SDAD1 → two-siRNA summed score (-2 to +2) = 0; mean protection from cisplatin (shift in death) (%) = -5.7
INO80E → two-siRNA summed score (-2 to +2) = 0; mean protection from cisplatin (shift in death) (%) = 2.4
CYP4F2 → two-siRNA summed score (-2 to +2) = 0; mean protection from cisplatin (shift in death) (%) = -0.3
XPO1 → two-siRNA summed score (-2 to +2) = 0; mean protection from cisplatin (shift in death) (%) = -11.4
F11 → two-siRNA summed score (-2 to +2) = 1; mean protection from cisplatin (shift in death) (%) = 13.1
GK2 → two-siRNA summed score (-2 to +2) = 1; mean protection from cisplatin (shift in death) (%) = 10.2
NSUN2 → two-siRNA summed score (-2 to +2) = -1; mean protection from cisplatin (shift in death) (%) = -4.1
C6 → two-siRNA summed score (-2 to +2) = 1; mean protection from cisplatin (shift in death) (%) = 18.1
IQGAP1 → two-siRNA summed score (-2 to +2) = 0; mean protection from cisplatin (shift in death) (%) = -8.2
OR6B2 → two-siRNA summed score (-2 to +2) = 0; mean protection from cisplatin (shift in death) (%) = -6.2
LRRC74B → two-siRNA summed score (-2 to +2) = 0; mean protection from cisplatin (shift in death) (%) = 3.3
PHLDB3 → two-siRNA summed score (-2 to +2) = 0; mean protection from cisplatin (shift in death) (%) = 1.2
TNFAIP2 → two-siRNA summed score (-2 to +2) = 1; mean protection from cisplatin (shift in death) (%) = 9.4
DDHD2 → two-siRNA summed score (-2 to +2) = 0; mean protection from cisplatin (shift in death) (%) = 0.6
